Experiment [1] addresses T1, GFP-Aurora-A (human) (UniProt O14965).
T1 sequence: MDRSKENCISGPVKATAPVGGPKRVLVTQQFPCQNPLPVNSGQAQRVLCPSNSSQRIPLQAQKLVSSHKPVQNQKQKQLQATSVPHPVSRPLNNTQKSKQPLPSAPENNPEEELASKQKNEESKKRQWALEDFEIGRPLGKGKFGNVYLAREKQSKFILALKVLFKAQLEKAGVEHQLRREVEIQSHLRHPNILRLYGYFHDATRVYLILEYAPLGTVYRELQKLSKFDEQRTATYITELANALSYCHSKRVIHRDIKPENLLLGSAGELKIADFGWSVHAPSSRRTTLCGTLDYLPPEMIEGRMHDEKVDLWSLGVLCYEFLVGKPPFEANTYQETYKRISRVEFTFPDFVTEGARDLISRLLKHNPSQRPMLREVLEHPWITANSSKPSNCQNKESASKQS
The experiment can be described thus: co-IP; 1 mg cellular protein from KYSE150/GFP-Aurora-A cells incubated with 7.5 µg anti-Aurora-A or anti-AP-2α antibody for 6 h at 4°C, then overnight with protein A/G-agarose beads; washed six times with lysis buffer; immunoblot; mouse or rabbit IgG as control. Background: Immunoblotting shows a protein as a band on a membrane.

Sequences of proteins named here, by UniProt entry; tags and fusion partners are left off.
UniProt P05549: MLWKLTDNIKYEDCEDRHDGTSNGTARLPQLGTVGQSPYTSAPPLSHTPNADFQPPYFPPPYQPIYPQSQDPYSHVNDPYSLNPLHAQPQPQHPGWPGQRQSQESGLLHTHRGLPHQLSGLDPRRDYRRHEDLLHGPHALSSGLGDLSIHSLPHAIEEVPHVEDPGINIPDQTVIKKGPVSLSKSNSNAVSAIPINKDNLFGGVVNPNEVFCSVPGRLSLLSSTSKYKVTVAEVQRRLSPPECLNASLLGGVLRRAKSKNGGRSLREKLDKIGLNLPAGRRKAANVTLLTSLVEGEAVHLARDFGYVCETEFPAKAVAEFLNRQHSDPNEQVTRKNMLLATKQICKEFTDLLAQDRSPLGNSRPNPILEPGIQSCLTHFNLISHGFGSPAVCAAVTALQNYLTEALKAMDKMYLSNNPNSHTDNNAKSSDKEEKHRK

The target in experiment [2] is T2, Aurora-A-GST fusion protein (human) (UniProt O14965).
T2 sequence: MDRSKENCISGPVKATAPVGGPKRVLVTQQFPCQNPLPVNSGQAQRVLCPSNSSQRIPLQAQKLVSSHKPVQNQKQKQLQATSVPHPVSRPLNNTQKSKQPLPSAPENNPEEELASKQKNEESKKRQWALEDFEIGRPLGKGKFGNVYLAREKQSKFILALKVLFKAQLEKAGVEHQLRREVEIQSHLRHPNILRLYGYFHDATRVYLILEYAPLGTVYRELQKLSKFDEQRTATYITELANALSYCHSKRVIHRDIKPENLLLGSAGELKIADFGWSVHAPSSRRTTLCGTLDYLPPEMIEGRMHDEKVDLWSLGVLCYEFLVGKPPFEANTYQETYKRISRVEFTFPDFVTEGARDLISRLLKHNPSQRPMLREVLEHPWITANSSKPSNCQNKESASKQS
The experiment can be described thus: pull-down; Aurora-A-GST or GST alone bound to 15 µl glutathione-sepharose beads for 6 h at 4°C, incubated with protein extracts for 6 h at 4°C; washed 3-5 times with lysis buffer; Western blot for AP-2α; only the target purified.

The target of experiment [3] is AP-2α (human (endogenous in KYSE150)) (UniProt P05549). Briefly: co-IP; 1 mg cellular protein from KYSE150/GFP-Aurora-A cells incubated with 7.5 µg anti-Aurora-A or anti-AP-2α antibody for 6 h at 4°C, then overnight with protein A/G-agarose beads; washed six times with lysis buffer; immunoblot; mouse or rabbit IgG as control.

No constants are given. Whether binding was seen depends on the method and setting. In cells and extracts the contact can be indirect. Some entries that bind do so weakly or less than the wild type. Sequences can lack the tags named with a protein.

For AP-2α (from UniProt P05549 1-437), the binding result in experiment [1] and in experiment [2] was “binds” throughout.

B1: GFP-Aurora-A (protein, UniProt O14965 1-403)
chain: MDRSKENCISGPVKATAPVGGPKRVLVTQQFPCQNPLPVNSGQAQRVLCPSNSSQRIPLQAQKLVSSHKPVQNQKQKQLQATSVPHPVSRPLNNTQKSKQPLPSAPENNPEEELASKQKNEESKKRQWALEDFEIGRPLGKGKFGNVYLAREKQSKFILALKVLFKAQLEKAGVEHQLRREVEIQSHLRHPNILRLYGYFHDATRVYLILEYAPLGTVYRELQKLSKFDEQRTATYITELANALSYCHSKRVIHRDIKPENLLLGSAGELKIADFGWSVHAPSSRRTTLCGTLDYLPPEMIEGRMHDEKVDLWSLGVLCYEFLVGKPPFEANTYQETYKRISRVEFTFPDFVTEGARDLISRLLKHNPSQRPMLREVLEHPWITANSSKPSNCQNKESASKQS
As to B1, in experiment [3], the binding result is on record as “binds”.

Values taken from article PMC3148253.
